Results from the supplement of paper PMC6078165.
Values are relative to the signal before dosing, not to a vehicle control; the signal also falls without drug.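 Fibroblast labels denote human fibroblasts, mainly primary ones from uterus (C12385, HUF), lung (H6013), bone (Hs27A), adrenal (HADF) and skin (WS1), plus mammary HMF and breast cancer-associated Hs343T. Cancer cells are basal-like or mesenchymal-like triple-negative breast cancer lines. A hit is a response shift exceeding 3x replicate standard deviation. The tissue of the other fibroblasts is not given here.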

Test system: MDAMB468
Test: relative JC-1 red fluorescence (viability) vs pre-drug, coculture with fibroblast (fraction); higher = more viable cancer cells
Experimental: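 JC-1 labelled TNBC cells cocultured 1:1 (1,500 cells each) with CellTrace Violet stained primary or stromal fibroblasts in 384-well plates in FluoroBrite medium, treated with one of 42 anticancer drugs at 0.1, 1, 10 or 100 uM. JC-1 red fluorescence (mitochondrial integrity in cancer cells only) was read by plate reader every 8 h for 72 h. Values are normalised to each well's pre-drug value. The stock of one drug was tenfold lower, so its dose labels may be too high.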

CC[C@]1(O)C[C@H]2CN(CCc3c([nH]c4ccccc34)[C@@](C(=O)OC)(c3cc4c(cc3OC)N(C=O)[C@H]3[C@@](O)(C(=O)OC)[C@H](OC(C)=O)[C@]5(CC)C=CCN6CC[C@]43[C@@H]65)C2)C1 [Vincristine]
relative JC-1 red fluorescence
Conditions	8 h	16 h	24 h	32 h	40 h	48 h	56 h	64 h	72 h
10 µM, coculture fibroblast: C12385	0.888	0.89	0.889	0.882	0.8487	0.855	0.8197	0.798	0.791
10 µM, coculture fibroblast: H6013	0.873	0.896	0.873	0.875	0.852	0.871	0.846	0.838	0.8083
10 µM, coculture fibroblast: H6019	0.8973	0.9231	0.9382	0.949	0.956	0.923	0.9833	0.954	0.875
10 µM, coculture fibroblast: H6076	0.935	0.853	0.8018	0.863	0.889	0.887	0.923	0.912	0.922
10 µM, coculture fibroblast: H6231	0.889	0.9931	0.956	0.947	0.902	0.883	0.832	0.818	0.817
10 µM, coculture fibroblast: HADF	0.898	0.919	0.884	0.902	0.855	0.857	0.815	0.806	0.777
10 µM, coculture fibroblast: HCFa	0.8851	0.878	0.84	0.835	0.7757	0.77548	0.73876	0.71	0.6922
10 µM, coculture fibroblast: HCPF	0.886	0.93	0.906	0.79	0.9694	0.958	0.888	0.873	0.858
10 µM, coculture fibroblast: HHSteC	0.902	0.916	0.899	0.88	0.836	0.85	0.782	0.76	0.733
10 µM, coculture fibroblast: HMF	0.848	0.872	0.777	0.855	0.9525	0.9296	0.871	0.8485	0.82
10 µM, coculture fibroblast: HPFa	0.9446	0.9451	0.9255	0.876	0.855	0.868	0.811	0.789	0.726
10 µM, coculture fibroblast: HUF	0.922	0.912	0.906	0.867	0.854	0.849	0.827	0.827	0.835
10 µM, coculture fibroblast: Hs5	0.9963	0.775	0.749	0.7726	0.869	0.983	0.956	0.925	0.951
10 µM, coculture fibroblast: Hs27A	0.895	0.905	0.866	0.876	0.834	0.831	0.798	0.781	0.755
10 µM, coculture fibroblast: Hs343T	0.8887	0.956	0.9802	0.982	0.927	0.917	0.881	0.866	0.843
10 µM, coculture fibroblast: WS1	0.913	0.8786	0.856	0.827	0.797	0.768	0.751	0.724	0.711
100 µM, coculture fibroblast: C12385	0.8865	0.8841	0.8882	0.8593	0.857	0.865	0.866	0.846	0.847
100 µM, coculture fibroblast: H6013	0.884	0.874	0.882	0.9	0.886	0.91	0.897	0.8911	0.8715
100 µM, coculture fibroblast: H6019	0.89	0.891	0.915	0.915	0.918	0.9327	0.918	0.9163	0.9274
100 µM, coculture fibroblast: H6076	0.931	0.806	0.8438	0.759	0.854	0.735	0.759	0.896	0.873
100 µM, coculture fibroblast: H6231	0.842	0.855	0.825	0.818	0.792	0.901	0.912	0.904	0.907
100 µM, coculture fibroblast: HADF	0.9029	0.9053	0.889	0.9221	0.906	0.9245	0.9041	0.891	0.846
100 µM, coculture fibroblast: HCFa	0.869	0.85	0.819	0.837	0.81	0.828	0.8	0.792	0.7676
100 µM, coculture fibroblast: HCPF	0.927	0.851	0.876	0.968	0.891	0.904	0.901	0.889	0.876
100 µM, coculture fibroblast: HHSteC	0.907	0.9091	0.9092	0.9251	0.902	0.946	0.897	0.888	0.867
100 µM, coculture fibroblast: HMF	0.91	0.902	0.938	0.979	0.916	0.902	0.856	0.838	0.822
100 µM, coculture fibroblast: HPFa	0.921	0.922	0.913	0.892	0.881	0.919	0.883	0.891	0.866
100 µM, coculture fibroblast: HUF	0.9419	0.91	0.9035	0.872	0.88249	0.8745	0.8422	0.856	0.855
100 µM, coculture fibroblast: Hs5	0.898	0.902	0.922	0.922	0.94	0.925	0.899	0.8851	0.932
100 µM, coculture fibroblast: Hs27A	0.8614	0.8653	0.8325	0.8709	0.843	0.86	0.862	0.857	0.839
100 µM, coculture fibroblast: Hs343T	0.93223	0.732	0.956	0.933	0.923	0.915	0.862	0.843	0.838
100 µM, coculture fibroblast: WS1	0.8855	0.867	0.8629	0.8393	0.832	0.808	0.802	0.789	0.801
